Data on one sequence can be found in patent publication US11253604B2 (CAREGEN CO., LTD., priority 2017, dated 2022).

The data set can be described thus: general procedure: Fmoc solid-phase peptide synthesis; CTL resin; HoBt/Bop/DIEA. The note with it: whole synthesis.

End groups of sequences in plain letters are not given here.

RFLKRLDRNLW came in with a crude mass of 1.40 g. The sequence also gave a crude yield (scale of the general procedure 700 mg resin) of 92.4%.
